The values below come from article PMC7819943, “Rice protein-binding microarrays: a tool to detect cis-acting elements near promoter regions in rice”.

The other results are listed elsewhere or left out.

For the assay, the target named is T1, OsSMF1 (Oryza sativa, UniProt Q6ZLB0 1-436).
T1 sequence: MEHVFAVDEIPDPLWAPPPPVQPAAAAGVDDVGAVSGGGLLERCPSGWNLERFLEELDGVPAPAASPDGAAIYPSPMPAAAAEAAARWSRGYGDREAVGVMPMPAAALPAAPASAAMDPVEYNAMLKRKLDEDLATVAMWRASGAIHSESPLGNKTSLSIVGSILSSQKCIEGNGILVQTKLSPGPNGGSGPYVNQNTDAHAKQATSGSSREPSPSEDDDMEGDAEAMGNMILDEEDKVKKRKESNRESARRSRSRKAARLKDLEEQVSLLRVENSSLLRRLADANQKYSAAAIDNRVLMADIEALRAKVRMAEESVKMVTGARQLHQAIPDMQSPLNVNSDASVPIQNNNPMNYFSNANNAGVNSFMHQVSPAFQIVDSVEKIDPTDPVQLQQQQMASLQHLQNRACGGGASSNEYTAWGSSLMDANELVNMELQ
Nature of the assay: protein-binding microarray (RPBM); PBS, 2% BSA, 51.3 ng/ul salmon testes DNA, 50 uM zinc acetate, 200 nM TF, 25 C, 1 h; high values mean tight binding. Particulars: protein: recombinant; tags: N-terminal polyhistidine and DsRed monomer fusion (pET32a); chain copies: 2; label: CyDye5-dUTP incorporated in the synthesized complementary strand; 3' TTTTT single-stranded linker to array surface; dsDNA, one strand shown. Put shortly: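 The binding signal for each feature is its fluorescence intensity in arbitrary units. An Axon 4000B scanner was used to read a custom Agilent array that had been made double-stranded with Cy5-dUTP primer extension, blocked with 2% BSA, incubated at 25 °C for 1 h with 200 nM protein in PBS, 2% BSA, salmon testes DNA and 50 µM zinc acetate, and washed. The protein was an N-terminal polyhistidine–DsRed transcription factor fusion from E. coli BL21-CodonPlus, purified on Ni–NTA.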
“ATTTCGAATTTCCCATTTCTTTTAGCGCCACGTCACGGCACGGAGTCACCTAGTGCAG”: the binding signal was 29300 fluorescence intensity (a.u.).
With “CCCCTCTTCCTTTCACGCGAACCGGCACCCTCCCGACCCTCGGAGTCACCTAGTGCAG” the figure was 3300 fluorescence intensity (a.u.); with “CACCACGTCCCATCCCGTCGCGTCGCCGCACATTCACCCCCGGAGTCACCTAGTGCAG”, 3840 fluorescence intensity (a.u.).
For the sequence “ATCTCATTAAACACGTGGTCACAATTAGCATAGATGAACTCGGAGTCACCTAGTGCAG”, the binding signal is 4190 fluorescence intensity (a.u.).
With “TGGACGGCCAGCTCATTTCCACGACATCCATTTCCTTTCGCGGAGTCACCTAGTGCAG” the figure was 11400 fluorescence intensity (a.u.); with “TCTCCCAGCCTCCCAGCCAGGCCCAGCAATTGCGTTGGCACGGAGTCACCTAGTGCAG”, 4930 fluorescence intensity (a.u.); with “TGTCTCCACCACGTCGATATCGATCGAGTGCACCCTCCATCGGAGTCACCTAGTGCAG”, 4790 fluorescence intensity (a.u.).
With “ACCATATGACTTATATATCTGTCGTCAGCTCATTTCTATGCGGAGTCACCTAGTGCAG” the figure was 7290 fluorescence intensity (a.u.); with “ACCTTCACACAAAGTTATTTGTATATGTTTGTCTCGAAAACGGAGTCACCTAGTGCAG”, 30400 fluorescence intensity (a.u.).
With “TGATTGATGATCTGTCAACAGTCACCTTTTCTTTTATCAACGGAGTCACCTAGTGCAG” the figure was 5520 fluorescence intensity (a.u.).
Regarding “TTGATTTGATTTTGGATGACCTGGTCCATGGACCTGGTAGCGGAGTCACCTAGTGCAG”, the binding signal was 3640 fluorescence intensity (a.u.).
With “TTGGGTAATTTTGAAAAGAATATCCAGCCCAGTGGCGTATCGGAGTCACCTAGTGCAG” the figure was 11300 fluorescence intensity (a.u.); with “TAAACTGAACATGCCCGTAGTACTGTAAGATTCTTTGTGACGGAGTCACCTAGTGCAG”, 3700 fluorescence intensity (a.u.); with “TCGGAGCTACCGTCGTGCTCACCCGCGTGGCCGCAGGCCCCGGAGTCACCTAGTGCAG”, 34400 fluorescence intensity (a.u.).
Regarding “GGCCCACGTGGGTCCCACACTGACTCAGCTGCCACGTGGGCGGAGTCACCTAGTGCAG”, the binding signal is 38600 fluorescence intensity (a.u.).
“CCCGCCACCCCGGCACGCCCGCTCTCCTCTGCTCGGCGCACGGAGTCACCTAGTGCAG”: the binding signal was 3260 fluorescence intensity (a.u.).
With “CACCAGCAGAGCAGAGCAACCACCTGACGTCATGCGTACCCGGAGTCACCTAGTGCAG” the figure was 11600 fluorescence intensity (a.u.); with “CCCACGGCGCAACGATGACGATGACGATGCCCTTCCGGCGCGGAGTCACCTAGTGCAG”, 46900 fluorescence intensity (a.u.).
With “GTGCGTGCAGCGTGGCCGACGGCCGACACGTGGGACGCGGCGGAGTCACCTAGTGCAG” the figure was 9970 fluorescence intensity (a.u.); with “CAATCTAATGGATTTGAAGCGATATGACACTTTAATCCTGCGGAGTCACCTAGTGCAG”, 3880 fluorescence intensity (a.u.); with “CGCATCCACCATTCCATTCACCATTCCACCCCTCGCCCGCCGGAGTCACCTAGTGCAG”, 23600 fluorescence intensity (a.u.).
With “AACTAAAGCGAAAGCGCGTCGCTTTGCTTTGTCATGTCGGCGGAGTCACCTAGTGCAG”, the binding signal was 3930 fluorescence intensity (a.u.).
On to “GAATGCGCACGTGGCTGGTACAACGACGTGGGGCCTGGCGCGGAGTCACCTAGTGCAG”, for which the binding signal is 11400 fluorescence intensity (a.u.).
Regarding “TTTACCTTGTAGAGGTCATCAAACTCTAATCGTACCTGAACGGAGTCACCTAGTGCAG”, the binding signal was 6180 fluorescence intensity (a.u.).
For “CATGCAAGCTTACTCACTTTCCCTCTTGCAGTGTGTTCTCCGGAGTCACCTAGTGCAG”, the binding signal is 3500 fluorescence intensity (a.u.).
For the sequence “GTCAGATCTTTAGACCGCCACGTTGACAACAGTTAGATAGCGGAGTCACCTAGTGCAG”, the binding signal was 6760 fluorescence intensity (a.u.).
For “TTTGTGGGTTTGGGGCTGACTAGATACAGTTGTCGTTTTGCGGAGTCACCTAGTGCAG”, the binding signal was 6330 fluorescence intensity (a.u.).
Take “AAATAAGCCTGGGGAACCTGACTTGTACAAGCAACCGGTACGGAGTCACCTAGTGCAG”: the binding signal was 3610 fluorescence intensity (a.u.).
For the sequence “CACTCCAGAACCAAACGTTTGATGACTCTCTGCTTTTGCGCGGAGTCACCTAGTGCAG”, the binding signal is 4570 fluorescence intensity (a.u.).
As to “GATAGCTCTGCAGACTGCAGTTAGAGCTGAGTCAGAGTAACGGAGTCACCTAGTGCAG”, the binding signal was 7270 fluorescence intensity (a.u.).
With “CGCGTGCACCACATCGCTTCCGGCCGCGCCAGTCACGCCCCGGAGTCACCTAGTGCAG” the figure was 3330 fluorescence intensity (a.u.).
As for “GAAAAGTCTCCTAACTGTTCACATGCATGACTGTAAGTGACGGAGTCACCTAGTGCAG”, the binding signal is 3820 fluorescence intensity (a.u.).
For “CCGCCGCCGAATCATCCGACTACCGTAGACGCTACGCATACGGAGTCACCTAGTGCAG”, the binding signal was 3220 fluorescence intensity (a.u.).
Regarding “GCGCATGACGCGGACACCTTGTTCACTTCCGAAGTGATACCGGAGTCACCTAGTGCAG”, the binding signal was 8980 fluorescence intensity (a.u.).
With “TCTATCAGTTCAGAACTGCTATTACACGCCATGGGATCATCGGAGTCACCTAGTGCAG” the figure was 3580 fluorescence intensity (a.u.); with “CGTAAGCGTCCGATCTGGCACGCATCGCATCGCCTGTCCCCGGAGTCACCTAGTGCAG”, 5270 fluorescence intensity (a.u.).
Consider “TGCCACCCTCCTCCCCTCACCGGCACGTGTCCCCACCTCCCGGAGTCACCTAGTGCAG”, for which the binding signal is 3800 fluorescence intensity (a.u.).
“TAACTAAATGTACAAACAGACGAGTAATGACATGGAGGTTCGGAGTCACCTAGTGCAG”: the binding signal is 3820 fluorescence intensity (a.u.).
With “GATCTGCAGATGCTAATAGTACATGACTCACTCAAATCAGCGGAGTCACCTAGTGCAG” the figure was 5040 fluorescence intensity (a.u.); with “TCAATCGCCACGCGCGCTCACCGTCAGCTTTCTGCGGTCGCGGAGTCACCTAGTGCAG”, 8310 fluorescence intensity (a.u.).
As for “CAAAAGTTTTGACGTGTCACATCGGATATACGGACACACACGGAGTCACCTAGTGCAG”, the binding signal was 10800 fluorescence intensity (a.u.).
With “ACTGAAGCTGGCGTACCTTATTGGTTTGTATTGCGTTGTTCGGAGTCACCTAGTGCAG” the figure was 3380 fluorescence intensity (a.u.).
